Laboratory results as given in the supplement of paper PMC7666118.
Some of the results follow.

By UniProt entry, the sequences of proteins in these tests, tags left out. Where a name states a change or a piece, a line headed by the entry shows the natural chain unless it says otherwise.
UniProt Q2PPJ7: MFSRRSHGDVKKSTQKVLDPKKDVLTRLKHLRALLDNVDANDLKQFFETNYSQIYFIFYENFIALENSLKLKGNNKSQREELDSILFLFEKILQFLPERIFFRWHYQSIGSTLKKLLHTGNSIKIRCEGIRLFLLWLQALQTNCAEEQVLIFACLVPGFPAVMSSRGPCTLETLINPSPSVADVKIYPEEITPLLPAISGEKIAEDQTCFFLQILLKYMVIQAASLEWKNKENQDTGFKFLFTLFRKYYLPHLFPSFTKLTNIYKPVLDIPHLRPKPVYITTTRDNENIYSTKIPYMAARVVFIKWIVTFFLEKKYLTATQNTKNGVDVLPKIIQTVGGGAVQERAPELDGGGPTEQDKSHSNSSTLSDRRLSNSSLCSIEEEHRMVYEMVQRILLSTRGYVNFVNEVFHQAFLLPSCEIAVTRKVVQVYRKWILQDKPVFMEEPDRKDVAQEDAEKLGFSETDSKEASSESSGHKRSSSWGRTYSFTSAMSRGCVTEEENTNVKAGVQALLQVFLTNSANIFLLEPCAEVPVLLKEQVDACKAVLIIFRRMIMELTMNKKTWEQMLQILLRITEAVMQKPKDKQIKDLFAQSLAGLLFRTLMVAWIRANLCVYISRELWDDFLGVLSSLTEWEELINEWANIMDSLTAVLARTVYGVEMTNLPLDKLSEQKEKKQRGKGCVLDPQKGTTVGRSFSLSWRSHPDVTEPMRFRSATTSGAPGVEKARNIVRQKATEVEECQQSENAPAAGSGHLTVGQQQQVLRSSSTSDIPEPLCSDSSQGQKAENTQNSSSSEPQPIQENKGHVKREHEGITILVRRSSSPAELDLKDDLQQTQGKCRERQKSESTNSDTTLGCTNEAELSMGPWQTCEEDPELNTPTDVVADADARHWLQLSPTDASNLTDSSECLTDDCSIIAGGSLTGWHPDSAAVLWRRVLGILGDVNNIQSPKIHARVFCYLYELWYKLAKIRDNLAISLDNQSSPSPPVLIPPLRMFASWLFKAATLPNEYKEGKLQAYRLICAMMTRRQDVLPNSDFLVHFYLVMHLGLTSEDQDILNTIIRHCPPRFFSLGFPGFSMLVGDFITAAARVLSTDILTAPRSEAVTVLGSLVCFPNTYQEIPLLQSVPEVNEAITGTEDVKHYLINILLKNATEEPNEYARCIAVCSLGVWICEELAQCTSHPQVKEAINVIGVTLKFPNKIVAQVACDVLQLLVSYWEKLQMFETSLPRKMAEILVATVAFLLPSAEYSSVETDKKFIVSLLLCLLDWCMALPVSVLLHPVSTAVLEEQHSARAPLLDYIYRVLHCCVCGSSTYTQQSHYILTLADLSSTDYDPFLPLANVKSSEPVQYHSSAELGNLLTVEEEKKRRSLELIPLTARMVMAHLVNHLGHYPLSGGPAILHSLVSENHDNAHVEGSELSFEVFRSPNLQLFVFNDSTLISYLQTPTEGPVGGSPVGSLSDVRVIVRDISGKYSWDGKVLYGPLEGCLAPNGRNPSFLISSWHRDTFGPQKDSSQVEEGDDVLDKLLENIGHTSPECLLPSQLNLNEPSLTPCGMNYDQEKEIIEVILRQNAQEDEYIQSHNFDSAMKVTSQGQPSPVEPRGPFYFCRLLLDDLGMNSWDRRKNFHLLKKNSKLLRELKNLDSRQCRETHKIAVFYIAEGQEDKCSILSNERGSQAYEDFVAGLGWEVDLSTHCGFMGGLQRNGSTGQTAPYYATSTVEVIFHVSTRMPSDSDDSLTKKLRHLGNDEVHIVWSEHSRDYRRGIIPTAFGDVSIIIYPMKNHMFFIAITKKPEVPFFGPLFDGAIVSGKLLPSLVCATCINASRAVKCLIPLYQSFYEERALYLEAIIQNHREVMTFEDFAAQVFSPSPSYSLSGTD
UniProt Q9GZY4: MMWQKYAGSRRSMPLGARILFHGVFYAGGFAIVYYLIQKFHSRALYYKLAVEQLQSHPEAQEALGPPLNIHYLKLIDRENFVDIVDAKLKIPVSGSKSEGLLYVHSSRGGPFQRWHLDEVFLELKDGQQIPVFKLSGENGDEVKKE
UniProt P20248, whole entry: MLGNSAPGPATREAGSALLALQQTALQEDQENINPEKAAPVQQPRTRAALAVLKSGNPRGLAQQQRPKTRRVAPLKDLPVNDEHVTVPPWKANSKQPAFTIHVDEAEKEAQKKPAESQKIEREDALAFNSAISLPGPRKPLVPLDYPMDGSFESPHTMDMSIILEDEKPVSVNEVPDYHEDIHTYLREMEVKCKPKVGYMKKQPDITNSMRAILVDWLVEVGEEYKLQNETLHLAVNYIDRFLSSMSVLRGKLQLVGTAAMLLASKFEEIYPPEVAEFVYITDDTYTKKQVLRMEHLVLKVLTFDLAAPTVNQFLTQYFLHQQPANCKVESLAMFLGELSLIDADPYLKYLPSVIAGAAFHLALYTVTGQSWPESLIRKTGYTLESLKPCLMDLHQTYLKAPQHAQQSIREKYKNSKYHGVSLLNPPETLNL
UniProt Q6ZWK4: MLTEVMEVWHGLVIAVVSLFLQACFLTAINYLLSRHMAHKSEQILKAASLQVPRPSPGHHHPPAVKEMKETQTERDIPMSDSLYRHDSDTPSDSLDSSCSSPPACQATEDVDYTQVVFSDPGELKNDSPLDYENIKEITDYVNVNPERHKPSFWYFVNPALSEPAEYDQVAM
UniProt Q6IQ49: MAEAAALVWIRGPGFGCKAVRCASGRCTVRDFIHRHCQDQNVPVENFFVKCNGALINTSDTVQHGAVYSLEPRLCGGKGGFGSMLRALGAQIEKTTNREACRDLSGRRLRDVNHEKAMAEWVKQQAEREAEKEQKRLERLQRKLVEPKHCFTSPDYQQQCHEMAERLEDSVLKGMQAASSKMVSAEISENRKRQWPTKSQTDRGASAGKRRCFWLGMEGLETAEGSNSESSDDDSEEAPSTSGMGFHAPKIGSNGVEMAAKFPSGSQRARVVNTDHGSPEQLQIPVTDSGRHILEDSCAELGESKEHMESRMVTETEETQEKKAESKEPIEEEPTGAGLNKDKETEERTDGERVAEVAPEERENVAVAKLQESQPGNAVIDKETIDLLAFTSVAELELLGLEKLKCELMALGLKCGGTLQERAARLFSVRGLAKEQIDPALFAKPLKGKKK
UniProt Q96GE9: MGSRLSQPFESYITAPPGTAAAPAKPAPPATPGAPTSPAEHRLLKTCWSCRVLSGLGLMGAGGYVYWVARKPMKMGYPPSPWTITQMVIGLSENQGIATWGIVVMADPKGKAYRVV
UniProt Q96JG6: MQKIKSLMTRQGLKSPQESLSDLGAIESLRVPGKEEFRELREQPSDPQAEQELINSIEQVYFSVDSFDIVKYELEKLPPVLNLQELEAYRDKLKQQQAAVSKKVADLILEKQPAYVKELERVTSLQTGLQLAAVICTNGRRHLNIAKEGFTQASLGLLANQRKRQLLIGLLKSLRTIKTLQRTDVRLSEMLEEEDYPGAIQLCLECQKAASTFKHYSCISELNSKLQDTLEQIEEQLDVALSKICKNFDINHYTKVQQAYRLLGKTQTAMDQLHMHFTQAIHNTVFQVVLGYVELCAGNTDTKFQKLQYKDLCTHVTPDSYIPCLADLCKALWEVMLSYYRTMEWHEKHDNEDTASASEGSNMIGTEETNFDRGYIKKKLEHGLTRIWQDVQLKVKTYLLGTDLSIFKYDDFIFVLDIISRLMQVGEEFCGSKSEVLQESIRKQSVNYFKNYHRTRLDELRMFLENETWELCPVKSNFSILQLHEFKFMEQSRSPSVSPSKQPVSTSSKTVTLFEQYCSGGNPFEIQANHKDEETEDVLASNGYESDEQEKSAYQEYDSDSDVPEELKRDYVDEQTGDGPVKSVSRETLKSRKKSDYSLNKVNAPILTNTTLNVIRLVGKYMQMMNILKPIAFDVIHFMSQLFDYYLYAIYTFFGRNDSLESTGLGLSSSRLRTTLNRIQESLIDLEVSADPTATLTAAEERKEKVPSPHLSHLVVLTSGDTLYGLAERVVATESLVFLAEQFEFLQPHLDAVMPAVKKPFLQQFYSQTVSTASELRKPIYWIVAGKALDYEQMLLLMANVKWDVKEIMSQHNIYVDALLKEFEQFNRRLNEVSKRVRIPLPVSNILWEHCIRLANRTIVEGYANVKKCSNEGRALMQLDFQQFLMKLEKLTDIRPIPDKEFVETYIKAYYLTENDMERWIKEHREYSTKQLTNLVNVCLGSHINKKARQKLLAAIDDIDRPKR
UniProt Q9H6E4: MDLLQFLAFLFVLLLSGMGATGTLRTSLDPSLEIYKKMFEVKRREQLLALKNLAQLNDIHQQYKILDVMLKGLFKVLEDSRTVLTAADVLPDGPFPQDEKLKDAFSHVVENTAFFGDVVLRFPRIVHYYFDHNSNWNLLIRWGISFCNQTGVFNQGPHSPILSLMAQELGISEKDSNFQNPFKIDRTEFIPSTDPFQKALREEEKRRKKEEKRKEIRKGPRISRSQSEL
UniProt Q5SWX8: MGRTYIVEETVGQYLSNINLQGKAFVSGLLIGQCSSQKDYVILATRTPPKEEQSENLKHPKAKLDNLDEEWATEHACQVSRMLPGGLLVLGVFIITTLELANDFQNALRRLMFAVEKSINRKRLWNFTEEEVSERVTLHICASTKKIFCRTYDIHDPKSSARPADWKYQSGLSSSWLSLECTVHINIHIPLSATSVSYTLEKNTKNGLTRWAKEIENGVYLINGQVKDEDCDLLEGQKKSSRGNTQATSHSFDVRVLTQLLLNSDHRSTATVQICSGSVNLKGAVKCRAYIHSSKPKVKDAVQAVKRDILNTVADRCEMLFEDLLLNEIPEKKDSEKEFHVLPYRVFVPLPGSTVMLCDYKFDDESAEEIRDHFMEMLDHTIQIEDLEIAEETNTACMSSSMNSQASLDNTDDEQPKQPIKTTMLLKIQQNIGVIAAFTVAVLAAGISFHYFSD
UniProt Q8IX05: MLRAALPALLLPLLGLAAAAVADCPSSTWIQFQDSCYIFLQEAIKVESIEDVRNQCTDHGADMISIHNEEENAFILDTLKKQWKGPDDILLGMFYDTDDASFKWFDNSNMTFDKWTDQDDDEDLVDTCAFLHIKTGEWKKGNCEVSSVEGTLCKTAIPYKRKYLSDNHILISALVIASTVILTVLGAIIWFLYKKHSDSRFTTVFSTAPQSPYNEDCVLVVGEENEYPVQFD
UniProt Q96MW1: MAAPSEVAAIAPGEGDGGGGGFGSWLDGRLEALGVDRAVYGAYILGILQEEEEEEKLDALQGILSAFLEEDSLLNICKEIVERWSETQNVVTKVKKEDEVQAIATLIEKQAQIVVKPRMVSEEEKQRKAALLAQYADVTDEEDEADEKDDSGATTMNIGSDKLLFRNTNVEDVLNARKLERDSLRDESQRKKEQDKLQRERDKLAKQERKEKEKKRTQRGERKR
UniProt P0DPI2: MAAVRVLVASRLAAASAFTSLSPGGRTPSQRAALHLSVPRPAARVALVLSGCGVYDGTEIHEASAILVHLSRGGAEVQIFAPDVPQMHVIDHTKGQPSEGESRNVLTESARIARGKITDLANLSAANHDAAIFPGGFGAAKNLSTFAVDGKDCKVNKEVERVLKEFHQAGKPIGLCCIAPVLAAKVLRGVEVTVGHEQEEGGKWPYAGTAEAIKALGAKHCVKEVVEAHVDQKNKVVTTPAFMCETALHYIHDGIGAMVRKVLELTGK
UniProt Q96CT7: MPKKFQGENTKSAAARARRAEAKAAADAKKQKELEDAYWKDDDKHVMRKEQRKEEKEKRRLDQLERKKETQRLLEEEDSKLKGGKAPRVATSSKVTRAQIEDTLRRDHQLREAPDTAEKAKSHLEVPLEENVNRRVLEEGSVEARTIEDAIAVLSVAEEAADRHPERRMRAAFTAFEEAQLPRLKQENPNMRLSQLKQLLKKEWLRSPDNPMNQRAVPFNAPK
UniProt Q96BQ5: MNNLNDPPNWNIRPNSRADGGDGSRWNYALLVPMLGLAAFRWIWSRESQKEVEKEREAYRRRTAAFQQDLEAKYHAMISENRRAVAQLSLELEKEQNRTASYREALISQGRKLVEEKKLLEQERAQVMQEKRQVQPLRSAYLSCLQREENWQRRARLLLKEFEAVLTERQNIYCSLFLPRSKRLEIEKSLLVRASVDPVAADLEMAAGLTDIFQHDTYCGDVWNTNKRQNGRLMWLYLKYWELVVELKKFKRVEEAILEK
UniProt Q96DZ1: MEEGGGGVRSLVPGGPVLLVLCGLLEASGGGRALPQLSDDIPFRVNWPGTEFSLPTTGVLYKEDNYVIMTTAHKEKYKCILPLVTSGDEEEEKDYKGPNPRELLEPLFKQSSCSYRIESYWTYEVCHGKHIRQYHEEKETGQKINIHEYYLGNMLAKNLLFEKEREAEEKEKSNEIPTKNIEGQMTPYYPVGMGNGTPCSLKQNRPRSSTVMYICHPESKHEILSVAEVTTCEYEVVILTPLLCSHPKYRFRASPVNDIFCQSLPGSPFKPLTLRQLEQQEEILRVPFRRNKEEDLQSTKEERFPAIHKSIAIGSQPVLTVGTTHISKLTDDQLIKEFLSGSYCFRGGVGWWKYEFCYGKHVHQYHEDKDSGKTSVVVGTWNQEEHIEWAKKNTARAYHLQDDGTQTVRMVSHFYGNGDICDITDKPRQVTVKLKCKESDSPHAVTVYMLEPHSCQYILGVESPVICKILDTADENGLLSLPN

What follows are targets tested with COc1ccc(Cn2ccc3cc(C)c(C(=O)NO)cc32)cc1 (assay: dose-dependent thermal stabilisation call (2D-TPP, DLPTP, 10% FDR) (binary (1 = stabilised)); higher = stabilised by the compound). Conditions: system: HL-60 intact cells; concentration range 0.04-10 µM.
Protocol: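 2D thermal proteome profiling in intact HL-60 cells treated with BRD-3811 (0, 0.04, 0.29, 2, 10 uM) for 90 min at 37 C, then heated 3 min at one of 12 temperatures (42-63.9 C). Soluble protein was quantified by TMT10 MS. The value is the DLPTP call of the paper: dose-dependent thermal stabilisation over all temperatures at 10% FDR (F-test of a dose-response against a flat model); one experiment, one call per tested protein.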

Target | dose-dependent thermal stabilisation call
CD3EAP (UniProt O15446) | inactive: 0
C20ORF74 (UniProt Q2PPJ7) | inactive: 0
C2CD2L (UniProt O14523) | inactive: 0
C3ORF21 (UniProt Q8NBI6) | inactive: 0
CAMLG (UniProt P49069) | inactive: 0
CCAR1 (UniProt Q8IX12) | inactive: 0
C7ORF44 (UniProt Q9GZY4) | inactive: 0
C20ORF142 (UniProt Q8N6M3) | inactive: 0
C3ORF37 (UniProt Q96FZ2) | inactive: 0
CARM1 (UniProt Q86X55) | inactive: 0
CCNA2 (UniProt P20248) | inactive: 0
CASP6 (UniProt P55212) | inactive: 0
CCNT1 (UniProt O60563) | inactive: 0
C3ORF10 (UniProt Q8WUW1) | inactive: 0
C1ORF186 (UniProt Q6ZWK4) | inactive: 0
C1ORF55 (UniProt Q6IQ49) | inactive: 0
C8ORF38 (UniProt Q330K2) | inactive: 0
C9ORF123 (UniProt Q96GE9) | inactive: 0
C7ORF11 (UniProt Q8TAP9) | inactive: 0
C7ORF42 (UniProt Q9NWD8) | inactive: 0

Target | dose-dependent thermal stabilisation call
CCDC132 (UniProt Q96JG6) | inactive: 0
C1ORF156 (UniProt O95568) | inactive: 0
CCDC51 (UniProt Q96ER9) | inactive: 0
CD151 (UniProt P48509) | inactive: 0
CAMSAP1 (UniProt Q5T5Y3) | inactive: 0
CCDC134 (UniProt Q9H6E4) | inactive: 0
C1ORF212 (UniProt Q96EX1) | inactive: 0
C1ORF25 (UniProt Q7Z2T5) | inactive: 0
C9ORF78 (UniProt Q9NZ63) | inactive: 0
C6ORF192 (UniProt Q6NT16) | inactive: 0
C1ORF27 (UniProt Q5SWX8) | inactive: 0
CD302 (UniProt Q8IX05) | inactive: 0
CCDC43 (UniProt Q96MW1) | inactive: 0
C21ORF33 (UniProt P0DPI2) | inactive: 0
CA2 (UniProt P00918) | inactive: 0
CCDC124 (UniProt Q96CT7) | inactive: 0
CCDC127 (UniProt Q96BQ5) | inactive: 0
C2ORF30 (UniProt Q96DZ1) | inactive: 0
C2ORF44 (UniProt Q9H6R7) | inactive: 0
C20ORF30 (UniProt Q96A57) | inactive: 0

A different layout for part of the listing above:
C1ORF212 (UniProt Q96EX1)
  dose-dependent thermal stabilisation call: inactive: 0
CCDC124 (UniProt Q96CT7)
  dose-dependent thermal stabilisation call: inactive: 0
